Data published in the supplement of paper PMC10849652.
This is one part of the list.

By UniProt entry, the sequences of proteins in these tests, tags left out. Where a name states a change or a piece, a line headed by the entry shows the natural chain unless it says otherwise.
UniProt E9PAV3, whole entry, looked up: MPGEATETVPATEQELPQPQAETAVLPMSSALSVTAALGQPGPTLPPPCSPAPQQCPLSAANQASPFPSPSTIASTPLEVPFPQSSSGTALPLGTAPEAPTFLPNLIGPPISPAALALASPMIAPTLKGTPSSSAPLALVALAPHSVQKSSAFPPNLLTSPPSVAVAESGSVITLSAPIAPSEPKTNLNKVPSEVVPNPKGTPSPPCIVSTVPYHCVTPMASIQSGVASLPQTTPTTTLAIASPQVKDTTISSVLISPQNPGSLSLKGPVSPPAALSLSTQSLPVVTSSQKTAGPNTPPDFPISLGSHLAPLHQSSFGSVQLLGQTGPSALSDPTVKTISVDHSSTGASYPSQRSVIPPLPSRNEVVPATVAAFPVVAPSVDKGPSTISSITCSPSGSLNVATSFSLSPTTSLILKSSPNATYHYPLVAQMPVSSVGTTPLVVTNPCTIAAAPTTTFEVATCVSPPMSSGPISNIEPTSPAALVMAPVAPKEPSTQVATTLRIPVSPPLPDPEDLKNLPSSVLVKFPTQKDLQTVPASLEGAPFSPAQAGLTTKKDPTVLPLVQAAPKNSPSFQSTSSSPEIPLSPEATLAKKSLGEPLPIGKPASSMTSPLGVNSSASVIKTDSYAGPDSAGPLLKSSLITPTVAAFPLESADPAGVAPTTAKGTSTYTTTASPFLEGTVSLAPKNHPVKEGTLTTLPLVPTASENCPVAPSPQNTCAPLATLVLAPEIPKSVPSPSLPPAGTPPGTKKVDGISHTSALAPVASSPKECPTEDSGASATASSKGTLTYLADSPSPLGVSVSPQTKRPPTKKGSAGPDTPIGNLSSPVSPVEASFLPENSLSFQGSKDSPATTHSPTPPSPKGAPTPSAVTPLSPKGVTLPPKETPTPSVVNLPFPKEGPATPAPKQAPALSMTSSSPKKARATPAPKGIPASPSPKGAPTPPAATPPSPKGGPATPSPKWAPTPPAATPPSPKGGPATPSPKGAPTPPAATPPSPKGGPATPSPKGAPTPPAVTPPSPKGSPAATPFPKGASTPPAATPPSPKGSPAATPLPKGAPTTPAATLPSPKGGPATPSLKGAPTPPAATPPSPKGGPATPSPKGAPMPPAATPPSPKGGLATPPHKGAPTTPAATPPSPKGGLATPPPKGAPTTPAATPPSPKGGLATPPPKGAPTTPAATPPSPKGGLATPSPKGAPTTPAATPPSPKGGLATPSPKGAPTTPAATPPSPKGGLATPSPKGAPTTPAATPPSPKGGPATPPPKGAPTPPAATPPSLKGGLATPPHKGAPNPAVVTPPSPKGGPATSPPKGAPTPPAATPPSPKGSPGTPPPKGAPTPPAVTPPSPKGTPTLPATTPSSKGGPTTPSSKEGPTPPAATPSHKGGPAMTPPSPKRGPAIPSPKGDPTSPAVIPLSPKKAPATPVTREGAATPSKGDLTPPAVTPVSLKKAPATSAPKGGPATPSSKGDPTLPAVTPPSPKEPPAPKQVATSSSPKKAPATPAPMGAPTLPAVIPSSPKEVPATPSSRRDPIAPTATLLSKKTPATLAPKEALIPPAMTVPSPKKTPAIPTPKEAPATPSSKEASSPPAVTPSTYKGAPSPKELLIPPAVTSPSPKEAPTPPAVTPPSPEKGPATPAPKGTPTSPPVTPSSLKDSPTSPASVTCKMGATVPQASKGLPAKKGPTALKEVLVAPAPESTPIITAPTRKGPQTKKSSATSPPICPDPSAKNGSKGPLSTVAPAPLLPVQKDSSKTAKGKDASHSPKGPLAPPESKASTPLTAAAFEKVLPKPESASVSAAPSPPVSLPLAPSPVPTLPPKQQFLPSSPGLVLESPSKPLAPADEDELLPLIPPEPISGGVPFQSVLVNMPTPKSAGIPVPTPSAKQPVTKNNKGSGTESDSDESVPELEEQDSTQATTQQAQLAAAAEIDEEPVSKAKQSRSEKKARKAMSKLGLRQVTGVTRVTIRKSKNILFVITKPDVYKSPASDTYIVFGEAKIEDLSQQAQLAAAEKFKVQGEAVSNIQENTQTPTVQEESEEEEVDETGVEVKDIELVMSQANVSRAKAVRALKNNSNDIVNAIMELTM
UniProt Q8N6N6: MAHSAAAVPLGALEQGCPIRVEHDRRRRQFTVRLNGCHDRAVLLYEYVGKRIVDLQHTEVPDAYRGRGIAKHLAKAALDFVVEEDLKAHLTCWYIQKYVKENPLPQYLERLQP
UniProt Q15788: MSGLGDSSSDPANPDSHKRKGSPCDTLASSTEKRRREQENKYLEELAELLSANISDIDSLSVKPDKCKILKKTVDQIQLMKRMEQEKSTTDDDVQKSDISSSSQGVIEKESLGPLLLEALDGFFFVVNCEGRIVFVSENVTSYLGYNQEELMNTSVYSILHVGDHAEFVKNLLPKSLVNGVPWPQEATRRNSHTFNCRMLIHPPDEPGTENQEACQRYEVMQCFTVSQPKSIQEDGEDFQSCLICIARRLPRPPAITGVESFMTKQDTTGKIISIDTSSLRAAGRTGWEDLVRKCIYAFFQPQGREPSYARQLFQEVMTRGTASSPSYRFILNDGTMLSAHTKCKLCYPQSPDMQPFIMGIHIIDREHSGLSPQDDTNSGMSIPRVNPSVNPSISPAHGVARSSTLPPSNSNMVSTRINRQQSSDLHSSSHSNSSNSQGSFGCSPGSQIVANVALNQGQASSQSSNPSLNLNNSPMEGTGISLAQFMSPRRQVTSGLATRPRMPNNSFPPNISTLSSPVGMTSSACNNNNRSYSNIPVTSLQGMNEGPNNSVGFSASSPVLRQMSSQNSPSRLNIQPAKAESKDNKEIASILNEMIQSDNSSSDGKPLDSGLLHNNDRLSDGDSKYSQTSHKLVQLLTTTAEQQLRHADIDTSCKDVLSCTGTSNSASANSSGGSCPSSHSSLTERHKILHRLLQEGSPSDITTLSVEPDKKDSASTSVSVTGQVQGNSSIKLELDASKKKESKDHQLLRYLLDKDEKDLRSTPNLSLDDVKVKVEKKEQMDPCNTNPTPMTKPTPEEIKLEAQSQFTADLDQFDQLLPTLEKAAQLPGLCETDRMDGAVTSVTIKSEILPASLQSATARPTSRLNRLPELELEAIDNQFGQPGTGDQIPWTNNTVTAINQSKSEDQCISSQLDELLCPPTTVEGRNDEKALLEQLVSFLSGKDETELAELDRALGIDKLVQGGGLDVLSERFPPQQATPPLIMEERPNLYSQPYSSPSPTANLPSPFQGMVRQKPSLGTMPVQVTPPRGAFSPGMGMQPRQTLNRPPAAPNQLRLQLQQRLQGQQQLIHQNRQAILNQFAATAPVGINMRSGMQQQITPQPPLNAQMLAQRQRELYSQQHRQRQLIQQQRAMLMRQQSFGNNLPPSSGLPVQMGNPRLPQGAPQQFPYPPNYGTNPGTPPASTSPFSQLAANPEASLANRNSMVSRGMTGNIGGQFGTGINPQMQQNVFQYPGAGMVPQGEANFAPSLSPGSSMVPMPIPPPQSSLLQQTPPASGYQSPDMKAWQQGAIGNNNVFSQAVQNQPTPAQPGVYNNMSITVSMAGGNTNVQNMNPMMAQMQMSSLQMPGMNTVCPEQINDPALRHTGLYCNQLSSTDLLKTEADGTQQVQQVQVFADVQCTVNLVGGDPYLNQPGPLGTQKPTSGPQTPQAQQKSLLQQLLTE
NBDY, A0A0U1RRE5, UniProt A0A0U1RRE5, whole entry, looked up: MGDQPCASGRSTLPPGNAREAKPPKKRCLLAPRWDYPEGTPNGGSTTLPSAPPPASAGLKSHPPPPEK
UniProt Q96DR8: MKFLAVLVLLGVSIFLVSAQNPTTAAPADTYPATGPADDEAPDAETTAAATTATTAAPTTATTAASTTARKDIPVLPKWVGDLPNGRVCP
UniProt P08590, whole entry, looked up: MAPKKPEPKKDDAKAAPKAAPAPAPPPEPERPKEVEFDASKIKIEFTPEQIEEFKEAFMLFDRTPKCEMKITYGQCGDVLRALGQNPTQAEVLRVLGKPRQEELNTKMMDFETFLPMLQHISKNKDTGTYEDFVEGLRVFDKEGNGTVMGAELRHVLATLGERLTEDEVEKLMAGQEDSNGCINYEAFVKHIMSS
UniProt Q9UK23: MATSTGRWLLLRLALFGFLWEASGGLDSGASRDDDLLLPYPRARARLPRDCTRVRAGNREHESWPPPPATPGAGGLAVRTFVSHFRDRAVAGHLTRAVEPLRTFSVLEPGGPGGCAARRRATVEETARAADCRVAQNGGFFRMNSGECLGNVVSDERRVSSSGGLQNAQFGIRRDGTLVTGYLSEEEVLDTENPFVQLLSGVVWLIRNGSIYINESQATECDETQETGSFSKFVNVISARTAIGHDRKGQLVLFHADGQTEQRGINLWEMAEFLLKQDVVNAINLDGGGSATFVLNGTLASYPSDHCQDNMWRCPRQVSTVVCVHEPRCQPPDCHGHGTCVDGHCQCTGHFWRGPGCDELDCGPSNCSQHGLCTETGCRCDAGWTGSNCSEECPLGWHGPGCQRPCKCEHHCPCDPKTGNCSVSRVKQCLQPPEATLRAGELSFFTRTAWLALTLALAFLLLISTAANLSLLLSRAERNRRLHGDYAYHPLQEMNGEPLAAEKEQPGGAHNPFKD
UniProt Q14596: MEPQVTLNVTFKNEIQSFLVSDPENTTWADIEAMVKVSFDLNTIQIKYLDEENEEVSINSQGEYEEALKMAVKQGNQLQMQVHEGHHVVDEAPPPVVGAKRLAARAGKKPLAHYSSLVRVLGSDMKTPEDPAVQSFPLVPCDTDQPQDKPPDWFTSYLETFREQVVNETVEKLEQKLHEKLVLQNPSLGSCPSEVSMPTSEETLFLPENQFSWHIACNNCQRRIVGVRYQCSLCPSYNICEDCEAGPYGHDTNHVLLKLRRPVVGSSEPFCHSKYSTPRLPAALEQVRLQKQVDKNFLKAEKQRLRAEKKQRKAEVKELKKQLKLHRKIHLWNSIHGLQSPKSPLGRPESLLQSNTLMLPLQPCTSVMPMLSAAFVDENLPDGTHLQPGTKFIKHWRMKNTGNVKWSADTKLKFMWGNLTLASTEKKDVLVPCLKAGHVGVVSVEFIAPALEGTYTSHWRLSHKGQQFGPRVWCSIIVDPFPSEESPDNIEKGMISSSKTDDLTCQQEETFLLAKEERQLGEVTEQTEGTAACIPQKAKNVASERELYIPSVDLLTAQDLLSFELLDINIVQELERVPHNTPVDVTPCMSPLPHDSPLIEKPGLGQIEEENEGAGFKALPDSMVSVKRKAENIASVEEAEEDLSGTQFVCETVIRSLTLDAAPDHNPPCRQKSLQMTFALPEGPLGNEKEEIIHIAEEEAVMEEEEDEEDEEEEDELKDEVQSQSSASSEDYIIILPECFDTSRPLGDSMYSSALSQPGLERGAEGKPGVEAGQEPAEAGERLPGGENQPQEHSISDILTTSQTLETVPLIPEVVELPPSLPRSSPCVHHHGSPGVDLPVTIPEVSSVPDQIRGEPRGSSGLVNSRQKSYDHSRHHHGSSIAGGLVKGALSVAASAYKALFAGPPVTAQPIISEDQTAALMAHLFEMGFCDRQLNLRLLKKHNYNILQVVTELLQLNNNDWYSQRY
UniProt Q969V3: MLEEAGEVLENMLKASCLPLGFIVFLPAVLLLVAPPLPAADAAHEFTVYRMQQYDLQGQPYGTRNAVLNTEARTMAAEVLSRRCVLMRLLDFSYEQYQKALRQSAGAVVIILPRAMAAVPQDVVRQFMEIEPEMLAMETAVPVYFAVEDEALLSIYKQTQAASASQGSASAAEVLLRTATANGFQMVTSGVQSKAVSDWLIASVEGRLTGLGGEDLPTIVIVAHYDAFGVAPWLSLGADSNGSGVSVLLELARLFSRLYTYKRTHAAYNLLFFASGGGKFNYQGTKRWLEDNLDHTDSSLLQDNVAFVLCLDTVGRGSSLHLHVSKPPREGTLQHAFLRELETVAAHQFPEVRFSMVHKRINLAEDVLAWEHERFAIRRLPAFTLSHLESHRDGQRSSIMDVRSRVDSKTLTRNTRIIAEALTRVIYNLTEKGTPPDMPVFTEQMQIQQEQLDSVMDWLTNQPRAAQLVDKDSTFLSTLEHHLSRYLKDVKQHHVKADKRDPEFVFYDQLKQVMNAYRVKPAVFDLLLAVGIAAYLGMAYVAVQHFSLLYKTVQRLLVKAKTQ
UniProt Q13506: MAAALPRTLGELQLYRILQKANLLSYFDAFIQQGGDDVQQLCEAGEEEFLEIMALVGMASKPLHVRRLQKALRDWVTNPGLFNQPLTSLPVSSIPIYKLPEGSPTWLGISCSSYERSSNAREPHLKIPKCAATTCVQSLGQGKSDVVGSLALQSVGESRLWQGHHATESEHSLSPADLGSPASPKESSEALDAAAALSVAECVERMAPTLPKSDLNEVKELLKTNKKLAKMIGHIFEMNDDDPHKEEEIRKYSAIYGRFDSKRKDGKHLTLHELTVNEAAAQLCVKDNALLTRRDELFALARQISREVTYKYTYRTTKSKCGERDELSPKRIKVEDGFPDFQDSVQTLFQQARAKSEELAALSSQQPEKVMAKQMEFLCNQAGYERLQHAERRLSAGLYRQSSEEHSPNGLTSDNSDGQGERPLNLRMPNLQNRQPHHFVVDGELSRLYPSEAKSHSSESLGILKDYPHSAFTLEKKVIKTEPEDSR

How the values were obtained:
Assay in all cases: log2 fold change, soluble protein after heating vs DMSO (PISA); higher = thermal stabilisation; K562 lysate, 10 uM; active = over 0.2 and 3.5 SD of the protein, either way, in both replicates (recomputed)
erlotinib = compound: C#Cc1cccc(Nc2ncnc3cc(OCCOC)c(OCCOC)cc23)c1 [erlotinib]
Procedure, shortened: (§1)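 Soluble protein was defined as the supernatant remaining after 21,000xg for 90 min, following pooling of heated aliquots and adjustment to 0.5% NP-40 at 4°C. Before that, crude K562 extract at 1 mg/mL protein in PBS pH 7.4 with 1 mM MgCl2 was treated with 10 μM compound for 30 min and heated for 3 min across 48°C-58°C. Quantification used TMTpro 16plex LC-MS/MS with channel sums equalised, and values are log-two fold changes in thermal stability relative to solvent controls from duplicates.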

[1] = compound: C/C(=N\NC(=O)C1=CC(=CC=C1)S(=O)(=O)N2CCOCC2)/C3=C(C=CC(=C3)Cl)O
Procedure, shortened: as §1

[2] = compound: C1=CC(=CC=C1C2=NC3=C(N2)C=C(C=C3)C(=O)N)OC4=CC=C(C=C4)Cl
Procedure, shortened: as §1

[3] = compound: C1=CC2=C(C=CC(=C2)/C=C\3/C(=O)NC(=NCC4=CC=CS4)S3)N=C1
Procedure, shortened: as §1

[4] = compound: C1=CC2=NC=CN=C2C=C1/C=C/3\C(=O)NC(=O)S3
Procedure, shortened: as §1

[5] = compound: C1=CC=C(C=C1)C2=NC(=C(N2)C3=CC=NC=C3)C4=CC(=C(C=C4)Cl)O
Procedure, shortened: as §1

[6] = compound: C1=CC=C2C(=C1)C3=NNC4=CC=CC(=C43)C2=O
Procedure, shortened: as §1

[7] = compound: C1CCN(C1)C(=O)NC2=CC=CC(=C2)NC3=NC=C(C(=N3)NCCC4=CN=CN4)Br
Procedure, shortened: as §1

[8] = compound: C1CN(CCC1(CC2=CC=C(C=C2)Cl)N)C3=NC=NC4=C3C=CN4
Procedure, shortened: as §1

IRAK-1-4 Inhibitor I = compound: C1COCCN1CCN2C3=CC=CC=C3N=C2NC(=O)C4=CC(=CC=C4)[N+](=O)[O-] [IRAK-1-4 Inhibitor I]
Procedure, shortened: as §1

ibrutinib = compound: C=CC(=O)N1CCC[C@@H](n2nc(-c3ccc(Oc4ccccc4)cc3)c3c(N)ncnc32)C1 [ibrutinib]
Procedure, shortened: as §1

[9] = compound: CC(=O)c1cnc2ccc(-c3cc(Cl)c(O)c(Cl)c3)nc2c1N[C@H]1CC[C@H](CN(C)C)CC1
Procedure, shortened: as §1

ralimetinib = compound: CC(C)(C)Cn1c(N)nc2ccc(-c3[nH]c(C(C)(C)C)nc3-c3ccc(F)cc3)nc21 [ralimetinib]
Procedure, shortened: as §1

[10] = compound: CC(C)(O)CC(=O)NCCn1ccc2ncnc(Nc3ccc(Oc4cccc(C(F)(F)F)c4)c(Cl)c3)c21
Procedure, shortened: as §1

[11] = compound: CC(C)C1=C2N=C(C=C(N2N=C1)NCC3=CC=CC=C3)NCCCCCCN
Procedure, shortened: as §1

[12] = compound: CC1=C(C(CC(=O)N1)C2=CC=C(C=C2)C(F)(F)F)C(=O)NC3=C(C=C4C(=C3)C=NN4)F
Procedure, shortened: as §1

[13] = compound: CC1=C(C2=C(C=C1)C(=O)C3=CC=CC=C3N2CCCN)C
Procedure, shortened: as §1

[14] = compound: CC1=C(C=C(C=C1)NC(=O)C2=CC(=CC=C2)C(C)(C)C#N)NC3=CC4=C(C=C3)N=CN(C4=O)C
Procedure, shortened: as §1

[15] = compound: CC1=C(C=C(C=C1)NC(=O)C2=CC(=CC=C2)N(C)C)NC(=O)C3=CC=C(C=C3)O
Procedure, shortened: as §1

[16] = compound: CC1=CC=C(C=C1)SC2=C3C=C(SC3=CN=C2)C(=O)N
Procedure, shortened: as §1

Measured: log2 fold change

NACA (UniProt E9PAV3)
inactive: erlotinib -0.011 | [1] -0.144 | [2] 0.066 | [3] -0.016 | [4] -0.049 | [5] 0 | [6] -0.002 | [7] -0.035 | [8] 0.007 | IRAK-1-4 Inhibitor I 0.01 | ibrutinib 0.004 | [9] -0.001 | ralimetinib -0.01 | [10] -0.04 | [11] -0.005 | [12] -0.014 | [13] -0.015 | [14] 0.033 | [15] 0.001 | [16] -0.026

MYO9A isoform 4 (UniProt B2RTY4)
inactive: erlotinib 0.074 | [1] 0.008 | [2] -0.125 | [3] -0.045 | [4] 0.153 | [5] -0.007 | [6] -0.05 | IRAK-1-4 Inhibitor I -0.059 | ibrutinib -0.057 | [9] 0.016 | ralimetinib 0.022 | [10] 0.068 | [11] 0.03 | [12] -0.031 | [13] -0.142 | [14] -0.037 | [15] 0.043 | [16] -0.005

NATD1 (UniProt Q8N6N6)
inactive: erlotinib 0.004 | [1] -0.207 | [2] 0.026 | [3] -0.206 | [4] -0.061 | [5] 0.008 | [6] 0.337 | [7] -0.005 | [8] 0.106 | IRAK-1-4 Inhibitor I 0.055 | ibrutinib 0.089 | ralimetinib 0.048 | [10] 0.002 | [11] 0.019 | [12] 0.009 | [13] 0.024 | [14] 0.004 | [15] -0.04

Random excerpt: two records from the list
MYO9A isoform 4 (UniProt B2RTY4)
inactive: erlotinib 0.074 | [1] 0.008 | [2] -0.125 | [3] -0.045 | [4] 0.153 | [5] -0.007 | [6] -0.05 | IRAK-1-4 Inhibitor I -0.059 | ibrutinib -0.057 | [9] 0.016 | ralimetinib 0.022 | [10] 0.068 | [11] 0.03 | [12] -0.031 | [13] -0.142 | [14] -0.037 | [15] 0.043 | [16] -0.005

NATD1 (UniProt Q8N6N6)
inactive: erlotinib 0.004 | [1] -0.207 | [2] 0.026 | [3] -0.206 | [4] -0.061 | [5] 0.008 | [6] 0.337 | [7] -0.005 | [8] 0.106 | IRAK-1-4 Inhibitor I 0.055 | ibrutinib 0.089 | ralimetinib 0.048 | [10] 0.002 | [11] 0.019 | [12] 0.009 | [13] 0.024 | [14] 0.004 | [15] -0.04

Remaining list, next part:

NCOA1 isoform 2 (UniProt Q15788)
inactive: erlotinib 0.277 | [1] 0.006 | [2] -0.016 | [3] 0.144 | [6] -0.075 | [9] 0.143 | [11] 0.091 | [13] 0.038 | [16] -0.125

NBDY, A0A0U1RRE5
inactive: erlotinib 0.281 | [1] 0.051 | [2] 0.025 | [3] 0.076 | [4] 0.001 | [5] 0.047 | [6] -0.361 | IRAK-1-4 Inhibitor I -0.031 | ibrutinib 0.205 | [9] 0.052 | ralimetinib -0.157 | [10] 0.124 | [11] -0.261 | [12] 0.122 | [13] -0.045 | [14] 0.028 | [15] -0.129 | [16] -0.041

MUCL1 (UniProt Q96DR8)
inactive: erlotinib -0.178 | [1] -0.159 | [2] -0.259 | [3] -0.366 | [4] 0.252 | [5] -0.042 | [6] 0.604 | [7] 0.278 | [8] -0.559 | IRAK-1-4 Inhibitor I -0.963 | ibrutinib 0.096 | [9] -0.077 | ralimetinib -0.157 | [10] 0.147 | [11] 0.296 | [12] 0.085 | [13] 0.429 | [14] -0.014 | [15] -0.273 | [16] -0.197

MYL3 (UniProt P08590)
inactive: erlotinib 0.019 | [1] 0.015 | [2] 0.05 | [3] 0.045 | [4] -0.042 | [5] -0.033 | [6] -0.006 | [7] 0.021 | [8] 0.017 | IRAK-1-4 Inhibitor I 0.051 | ibrutinib 0.121 | [9] -0.048 | ralimetinib 0.024 | [10] -0.031 | [11] 0.011 | [12] -0.026 | [14] 0.094 | [15] -0.009 | [16] -0.048

NAGPA (UniProt Q9UK23)
inactive: erlotinib -0.009 | [1] -0.014 | [2] 0.013 | [3] -0.003 | [4] -0.004 | [6] 0.054 | ibrutinib 0.034 | [9] -0.052 | [11] -0.056 | [12] -0.151 | [13] 0.059 | [16] 0.049

NBR1 (UniProt Q14596)
inactive: erlotinib 0.065 | [1] -0.142 | [2] 0.059 | [3] 0.285 | [4] -0.121 | [5] 0.012 | [6] 0.073 | [7] 0.143 | [8] -0.048 | IRAK-1-4 Inhibitor I -0.073 | ibrutinib -0.082 | [9] 0.024 | ralimetinib 0.001 | [10] -0.018 | [11] 0.003 | [13] -0.089 | [14] -0.055 | [15] 0.035 | [16] 0.046

NAA15, A0A0B4J1W3
inactive: erlotinib -0.065 | [1] 0.029 | [2] 0.007 | [3] 0 | [4] -0.002 | [5] -0.062 | [6] 0.043 | [7] -0.034 | [8] 0 | IRAK-1-4 Inhibitor I 0.054 | ibrutinib 0.029 | [9] 0.03 | ralimetinib 0.021 | [10] 0.004 | [11] -0.016 | [13] 0.06 | [14] -0.082 | [15] -0.004 | [16] 0.003

MYH3 (UniProt P11055)
inactive: erlotinib 0 | [1] 0.077 | [2] 0.064 | [3] 0.14 | [5] 0.025 | [6] 0.037 | IRAK-1-4 Inhibitor I 0.032 | ralimetinib -0.012 | [10] -0.038 | [11] -0.039 | [13] -0.003 | [15] 0.027

NCLN (UniProt Q969V3)
inactive: erlotinib 0.011 | [1] -0.014 | [2] -0.058 | [3] 0.003 | [4] -0.014 | [5] 0.007 | [6] -0.025 | [7] -0.01 | [8] 0.015 | IRAK-1-4 Inhibitor I 0.014 | ibrutinib 0.006 | [9] -0.005 | ralimetinib 0.029 | [10] -0.037 | [11] -0.012 | [12] 0.025 | [13] 0.013 | [14] -0.009 | [15] 0.008 | [16] -0.008

NAV2 (UniProt Q8IVL1)
inactive: [4] -0.001 | [5] 0.017 | [7] -0.129 | [8] -0.199 | IRAK-1-4 Inhibitor I 0.086 | ibrutinib 0.232 | [9] 0.041 | ralimetinib -0.252 | [10] 0.89 | [12] -0.255 | [15] -0.005 | [16] 0.158

NAP1L1 (UniProt H0YHC3)
inactive: [9] -0.106 | [16] 0.149

NAB1 (UniProt Q13506)
inactive: erlotinib -0.014 | [2] 0.392 | [4] -0.081 | [5] -0.026 | IRAK-1-4 Inhibitor I 0.107 | ibrutinib -0.105 | ralimetinib 0.095 | [10] -0.208 | [11] 0.107 | [12] -0.016 | [13] -0.024 | [14] 0.162 | [15] 0.16
